Experimental data from publication PMC12094996.
These are yes or no findings as the source states them, for the method shown. Binding seen in cells or lysates may run through a third protein. Some binding calls cover weakened binding; strength is not graded here.

Amino acid sequences for entries named in this document (tags omitted). Residues count along the entry.
UniProt O15460, residues 22-535: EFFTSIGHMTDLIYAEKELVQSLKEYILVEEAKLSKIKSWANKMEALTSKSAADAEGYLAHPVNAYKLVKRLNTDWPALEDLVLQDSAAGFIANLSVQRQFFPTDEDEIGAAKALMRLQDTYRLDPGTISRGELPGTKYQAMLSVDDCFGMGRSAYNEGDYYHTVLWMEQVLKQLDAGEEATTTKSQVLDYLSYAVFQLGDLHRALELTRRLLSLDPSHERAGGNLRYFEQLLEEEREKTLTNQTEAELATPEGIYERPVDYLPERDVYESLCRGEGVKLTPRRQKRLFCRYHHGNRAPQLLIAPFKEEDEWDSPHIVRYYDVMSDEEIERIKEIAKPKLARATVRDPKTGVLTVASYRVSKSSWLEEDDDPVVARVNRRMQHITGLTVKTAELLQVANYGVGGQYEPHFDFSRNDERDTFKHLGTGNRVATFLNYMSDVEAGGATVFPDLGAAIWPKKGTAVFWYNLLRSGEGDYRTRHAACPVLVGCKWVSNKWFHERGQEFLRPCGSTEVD
UniProt P42224: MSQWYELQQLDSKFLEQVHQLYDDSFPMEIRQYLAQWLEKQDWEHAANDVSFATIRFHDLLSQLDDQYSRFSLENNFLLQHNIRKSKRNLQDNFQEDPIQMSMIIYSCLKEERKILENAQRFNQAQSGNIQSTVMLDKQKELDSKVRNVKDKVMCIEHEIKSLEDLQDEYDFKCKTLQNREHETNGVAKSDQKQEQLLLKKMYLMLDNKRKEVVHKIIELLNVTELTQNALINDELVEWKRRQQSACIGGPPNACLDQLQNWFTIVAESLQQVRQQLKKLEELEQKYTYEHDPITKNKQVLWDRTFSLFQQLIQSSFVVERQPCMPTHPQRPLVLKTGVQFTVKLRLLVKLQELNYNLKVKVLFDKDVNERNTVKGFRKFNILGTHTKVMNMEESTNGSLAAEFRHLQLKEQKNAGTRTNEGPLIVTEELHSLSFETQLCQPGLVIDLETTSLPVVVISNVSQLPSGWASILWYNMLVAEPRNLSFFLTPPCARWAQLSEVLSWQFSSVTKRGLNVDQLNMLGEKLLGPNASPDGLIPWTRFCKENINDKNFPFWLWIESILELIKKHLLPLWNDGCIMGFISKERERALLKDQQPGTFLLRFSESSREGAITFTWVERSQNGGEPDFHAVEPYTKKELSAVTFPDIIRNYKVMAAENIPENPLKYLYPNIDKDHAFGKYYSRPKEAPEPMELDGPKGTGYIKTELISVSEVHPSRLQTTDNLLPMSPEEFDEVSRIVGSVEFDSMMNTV

Target: prolyl 4-hydroxylase subunit alpha 2 (P4HA2) (human (endogenous in HCT8)) (UniProt O15460)
Assay: co-IP; HCT8 cell lysate; Crosslink Magnetic IP/Co-IP Kit; IP with 5 ug P4HA2 polyclonal antibody (ab70887) on magnetic beads, overnight at 4°C; rabbit IgG as negative control; Western blot for P4HA2 and STAT1

For STAT1 (from UniProt P42224 1-750), the binding was “binds”.
